# This is one part of the list.
# B1: PX14343I-pdi-501-30-501 (Parabacteroides distasonis) (protein)
# chain: SDQYSTETFWKTKEHASAGIMGCYNALKLWRSLHTMEFDMLTANAMPYNEANGTQAIGKGEHLSTTALIGSLWKNCYVGIGRTNTFIANVGGVDMDESEKAKMVGEAKFLRAFYYLSLVDKFGGVPLIIDAPNADEQAELPRNSKEEVVNQIVKDLEEAAAVLPDTYASSDLGRATKGAALALKARTLLYNSRWAEAAQAAKQVMESGVYQLFNDYRHFFSEDNKYNCEVIFDIEAKLPEYPTDYDQNIWRLNRPAPLKELVDTYLCVDGKTIEESPLYDPTRPYENRDPRLLKSIVCIGYPYLGKTITKEDVATTGFGVKKYTSYEDDVTIPLVERSAFNFILIRYAEVLLTYAEAQNEASGPDQSVYDAINQLRRRPDINMPEVPKGLTKDQMREVIRRERRIELTFEGLYYSDILRWKTAEKENNGMMHNYEGIEVVKRSFNPKRDYLWPIPYNQTVLNPNLEQNPNWD
# Tests used:
# Assay in all cases: glycan array binding signal (z-score within array); higher = stronger binding
# Conditions in all cases: glycan notation: IUPAC condensed, linker removed
# Neu5Ac(a2-3)Gal(b1-4)Glc = biological target: Neu5Ac(a2-3)Gal(b1-4)Glc
# Method in brief: (§1)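 The Consortium for Functional Glycomics database supplied 3228 glycan arrays, of which those lacking an available protein sequence were dropped. The binding signal, a within-array Z-score, was averaged across arrays of the same protein sequence and across linkers. Negative scores can be read as non-binding.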
# [1] = biological target: Neu5Ac(a2-3)Gal(b1-4)GlcNAc
# Method in brief: as §1
# [2] = biological target: Neu5Ac(a2-3)Gal(b1-4)GlcNAc(b1-2)Man
# Method in brief: as §1
# [3] = biological target: Neu5Ac(a2-3)Gal(b1-4)GlcNAc(b1-2)Man(a1-3)[GlcNAc(b1-4)][Neu5Ac(a2-3)Gal(b1-4)GlcNAc(b1-2)Man(a1-6)]Man(b1-4)GlcNAc(b1-4)GlcNAc
# Method in brief: as §1
# [4] = biological target: Neu5Ac(a2-3)Gal(b1-4)GlcNAc(b1-2)Man(a1-3)[Neu5Ac(a2-3)Gal(b1-4)GlcNAc(b1-2)Man(a1-6)]Man(b1-4)GlcNAc(b1-4)GlcNAc
# Method in brief: as §1
# [5] = biological target: Neu5Ac(a2-3)Gal(b1-4)GlcNAc(b1-2)Man(a1-3)[Neu5Ac(a2-3)Gal(b1-4)GlcNAc(b1-2)Man(a1-6)]Man(b1-4)GlcNAc(b1-4)[Fuc(a1-6)]GlcNAc
# Method in brief: as §1
# [6] = biological target: Neu5Ac(a2-3)Gal(b1-4)GlcNAc(b1-2)Man(a1-3)[Neu5Ac(a2-6)Gal(b1-4)GlcNAc(b1-2)Man(a1-6)]Man(b1-4)GlcNAc(b1-4)GlcNAc
# Method in brief: as §1
# [7] = biological target: Neu5Ac(a2-3)Gal(b1-4)GlcNAc(b1-2)[Neu5Ac(a2-3)Gal(b1-4)GlcNAc(b1-4)]Man(a1-3)[GlcNAc(b1-4)][Neu5Ac(a2-3)Gal(b1-4)GlcNAc(b1-2)[Neu5Ac(a2-3)Gal(b1-4)GlcNAc(b1-6)]Man(a1-6)]Man(b1-4)GlcNAc(b1-4)GlcNAc
# Method in brief: as §1
# [8] = biological target: Neu5Ac(a2-3)Gal(b1-4)GlcNAc(b1-2)[Neu5Ac(a2-3)Gal(b1-4)GlcNAc(b1-4)]Man(a1-3)[GlcNAc(b1-4)][Neu5Ac(a2-3)Gal(b1-4)GlcNAc(b1-4)Man(a1-6)]Man(b1-4)GlcNAc(b1-4)GlcNAc
# Method in brief: as §1
# [9] = biological target: Neu5Ac(a2-3)Gal(b1-4)GlcNAc(b1-2)[Neu5Ac(a2-3)Gal(b1-4)GlcNAc(b1-6)]Man(a1-6)[Neu5Ac(a2-3)Gal(b1-4)GlcNAc(b1-2)Man(a1-3)]Man(b1-4)GlcNAc(b1-4)GlcNAc
# Method in brief: as §1
# [10] = biological target: Neu5Ac(a2-3)Gal(b1-4)GlcNAc(b1-2)[Neu5Ac(a2-3)Gal(b1-4)GlcNAc(b1-6)]Man(a1-6)[Neu5Ac(a2-3)Gal(b1-4)GlcNAc(b1-2)Man(a1-3)][GlcNAc(b1-4)]Man(b1-4)GlcNAc(b1-4)GlcNAc
# Method in brief: as §1
# [11] = biological target: Neu5Ac(a2-3)Gal(b1-4)GlcNAc(b1-3)Gal
# Method in brief: as §1
# [12] = biological target: Neu5Ac(a2-3)Gal(b1-4)GlcNAc(b1-3)Gal(b1-3)GlcNAc
# Method in brief: as §1
# [13] = biological target: Neu5Ac(a2-3)Gal(b1-4)GlcNAc(b1-3)Gal(b1-4)GlcNAc
# Method in brief: as §1
# [14] = biological target: Neu5Ac(a2-3)Gal(b1-4)GlcNAc(b1-3)Gal(b1-4)GlcNAc(b1-2)Man(a1-3)[Neu5Ac(a2-3)Gal(b1-4)GlcNAc(b1-3)Gal(b1-4)GlcNAc(b1-2)Man(a1-6)]Man(b1-4)GlcNAc(b1-4)GlcNAc
# Method in brief: as §1
# [15] = biological target: Neu5Ac(a2-3)Gal(b1-4)GlcNAc(b1-3)Gal(b1-4)GlcNAc(b1-3)Gal(b1-4)GlcNAc
# Method in brief: as §1
# [16] = biological target: Neu5Ac(a2-3)Gal(b1-4)GlcNAc(b1-3)Gal(b1-4)GlcNAc(b1-3)Gal(b1-4)GlcNAc(b1-2)Man(a1-3)[Neu5Ac(a2-3)Gal(b1-4)GlcNAc(b1-3)Gal(b1-4)GlcNAc(b1-3)Gal(b1-4)GlcNAc(b1-2)Man(a1-6)]GalNAc
# Method in brief: as §1
# [17] = biological target: Neu5Ac(a2-3)Gal(b1-4)GlcNAc(b1-3)Gal(b1-4)GlcNAc(b1-3)GalNAc
# Method in brief: as §1
# [18] = biological target: Neu5Ac(a2-3)Gal(b1-4)GlcNAc(b1-3)Gal(b1-4)GlcNAc(b1-3)[Neu5Ac(a2-3)Gal(b1-4)GlcNAc(b1-3)Gal(b1-4)GlcNAc(b1-6)]GalNAc
# Method in brief: as §1
# [19] = biological target: Neu5Ac(a2-3)Gal(b1-4)GlcNAc(b1-3)Gal(b1-4)GlcNAc(b1-6)[Gal(b1-3)]GalNAc
# Method in brief: as §1
# [20] = biological target: Neu5Ac(a2-3)Gal(b1-4)GlcNAc(b1-3)Gal(b1-4)[Fuc(a1-3)]GlcNAc
# Method in brief: as §1
# [21] = biological target: Neu5Ac(a2-3)Gal(b1-4)GlcNAc(b1-3)GalNAc
# Method in brief: as §1
# [22] = biological target: Neu5Ac(a2-3)Gal(b1-4)GlcNAc(b1-3)[Neu5Ac(a2-3)Gal(b1-4)GlcNAc(b1-6)]GalNAc
# Method in brief: as §1
# [23] = biological target: Neu5Ac(a2-3)Gal(b1-4)GlcNAc(b1-6)GalNAc
# Method in brief: as §1
# [24] = biological target: Neu5Ac(a2-3)Gal(b1-4)GlcNAc(b1-6)[Gal(b1-3)]GalNAc
# Method in brief: as §1
# [25] = biological target: Neu5Ac(a2-3)Gal(b1-4)GlcNAc(b1-6)[Neu5Ac(a2-3)Gal(b1-3)]GalNAc
# Method in brief: as §1
# [26] = biological target: Neu5Ac(a2-3)Gal(b1-4)GlcNAc6S
# Method in brief: as §1
# [27] = biological target: Neu5Ac(a2-3)Gal(b1-4)[Fuc(a1-3)]GlcNAc
# Method in brief: as §1
# [28] = biological target: Neu5Ac(a2-3)Gal(b1-4)[Fuc(a1-3)]GlcNAc(b1-2)Man
# Method in brief: as §1
# [29] = biological target: Neu5Ac(a2-3)Gal(b1-4)[Fuc(a1-3)]GlcNAc(b1-3)Gal
# Method in brief: as §1
# [30] = biological target: Neu5Ac(a2-3)Gal(b1-4)[Fuc(a1-3)]GlcNAc(b1-3)Gal(b1-4)GlcNAc
# Method in brief: as §1
# [31] = biological target: Neu5Ac(a2-3)Gal(b1-4)[Fuc(a1-3)]GlcNAc(b1-3)Gal(b1-4)[Fuc(a1-3)]GlcNAc(b1-3)Gal(b1-4)[Fuc(a1-3)]GlcNAc
# Method in brief: as §1
# [32] = biological target: Neu5Ac(a2-3)Gal(b1-4)[Fuc(a1-3)]GlcNAc(b1-3)GalNAc
# Method in brief: as §1
# [33] = biological target: Neu5Ac(a2-3)Gal(b1-4)[Fuc(a1-3)]GlcNAc(b1-6)[Gal(b1-3)]GalNAc
# Method in brief: as §1
# [34] = biological target: Neu5Ac(a2-3)Gal(b1-4)[Fuc(a1-3)]GlcNAc(b1-6)[Neu5Ac(a2-3)Gal(b1-3)]GalNAc
# Method in brief: as §1
# [35] = biological target: Neu5Ac(a2-3)Gal(b1-4)[Fuc(a1-3)]GlcNAc6S
# Method in brief: as §1
# [36] = biological target: Neu5Ac(a2-3)Gal6S(b1-4)GlcNAc
# Method in brief: as §1
# [37] = biological target: Neu5Ac(a2-3)Gal6S(b1-4)[Fuc(a1-3)]GlcNAc
# Method in brief: as §1
binder,measurement,setting,value
B1,glycan array binding signal (z-score),Neu5Ac(a2-3)Gal(b1-4)Glc,-0.307
same,glycan array binding signal (z-score),[1],-0.256
same,glycan array binding signal (z-score),[2],0.484
same,glycan array binding signal (z-score),[3],-0.861
same,glycan array binding signal (z-score),[4],-0.301
same,glycan array binding signal (z-score),[5],-0.534
same,glycan array binding signal (z-score),[6],-0.203
same,glycan array binding signal (z-score),[7],-0.878
same,glycan array binding signal (z-score),[8],-0.853
same,glycan array binding signal (z-score),[9],-0.133
same,glycan array binding signal (z-score),[10],-0.335
same,glycan array binding signal (z-score),[11],-0.617
same,glycan array binding signal (z-score),[12],-0.628
same,glycan array binding signal (z-score),[13],0.023
same,glycan array binding signal (z-score),[14],-0.252
same,glycan array binding signal (z-score),[15],0.106
same,glycan array binding signal (z-score),[16],0.395
same,glycan array binding signal (z-score),[17],-0.567
same,glycan array binding signal (z-score),[18],-0.023
same,glycan array binding signal (z-score),[19],-0.397
same,glycan array binding signal (z-score),[20],-0.4
same,glycan array binding signal (z-score),[21],0.922
same,glycan array binding signal (z-score),[22],-0.096
same,glycan array binding signal (z-score),[23],-0.142
same,glycan array binding signal (z-score),[24],-0.216
same,glycan array binding signal (z-score),[25],-0.54
same,glycan array binding signal (z-score),[26],-0.006
same,glycan array binding signal (z-score),[27],-0.149
same,glycan array binding signal (z-score),[28],-0.585
same,glycan array binding signal (z-score),[29],-0.533
same,glycan array binding signal (z-score),[30],0.531
same,glycan array binding signal (z-score),[31],-0.292
same,glycan array binding signal (z-score),[32],-0.408
same,glycan array binding signal (z-score),[33],-0.221
same,glycan array binding signal (z-score),[34],0.289
same,glycan array binding signal (z-score),[35],-0.951
same,glycan array binding signal (z-score),[36],0.278
same,glycan array binding signal (z-score),[37],-0.698

# — the supplement of paper PMC8728848
